# From the supplement of paper PMC12819154, “High-throughput peptide-centric local stability assay extends protein–ligand identification to membrane proteins, tissues and bacteria” (Nature Structural & Molecular Biology, 2025)
# Chains of the proteins cited; added tags and fusions are not shown. Lines headed by an entry give the natural chain unless they say otherwise; changes in a name come on top.
# UniProt P59242: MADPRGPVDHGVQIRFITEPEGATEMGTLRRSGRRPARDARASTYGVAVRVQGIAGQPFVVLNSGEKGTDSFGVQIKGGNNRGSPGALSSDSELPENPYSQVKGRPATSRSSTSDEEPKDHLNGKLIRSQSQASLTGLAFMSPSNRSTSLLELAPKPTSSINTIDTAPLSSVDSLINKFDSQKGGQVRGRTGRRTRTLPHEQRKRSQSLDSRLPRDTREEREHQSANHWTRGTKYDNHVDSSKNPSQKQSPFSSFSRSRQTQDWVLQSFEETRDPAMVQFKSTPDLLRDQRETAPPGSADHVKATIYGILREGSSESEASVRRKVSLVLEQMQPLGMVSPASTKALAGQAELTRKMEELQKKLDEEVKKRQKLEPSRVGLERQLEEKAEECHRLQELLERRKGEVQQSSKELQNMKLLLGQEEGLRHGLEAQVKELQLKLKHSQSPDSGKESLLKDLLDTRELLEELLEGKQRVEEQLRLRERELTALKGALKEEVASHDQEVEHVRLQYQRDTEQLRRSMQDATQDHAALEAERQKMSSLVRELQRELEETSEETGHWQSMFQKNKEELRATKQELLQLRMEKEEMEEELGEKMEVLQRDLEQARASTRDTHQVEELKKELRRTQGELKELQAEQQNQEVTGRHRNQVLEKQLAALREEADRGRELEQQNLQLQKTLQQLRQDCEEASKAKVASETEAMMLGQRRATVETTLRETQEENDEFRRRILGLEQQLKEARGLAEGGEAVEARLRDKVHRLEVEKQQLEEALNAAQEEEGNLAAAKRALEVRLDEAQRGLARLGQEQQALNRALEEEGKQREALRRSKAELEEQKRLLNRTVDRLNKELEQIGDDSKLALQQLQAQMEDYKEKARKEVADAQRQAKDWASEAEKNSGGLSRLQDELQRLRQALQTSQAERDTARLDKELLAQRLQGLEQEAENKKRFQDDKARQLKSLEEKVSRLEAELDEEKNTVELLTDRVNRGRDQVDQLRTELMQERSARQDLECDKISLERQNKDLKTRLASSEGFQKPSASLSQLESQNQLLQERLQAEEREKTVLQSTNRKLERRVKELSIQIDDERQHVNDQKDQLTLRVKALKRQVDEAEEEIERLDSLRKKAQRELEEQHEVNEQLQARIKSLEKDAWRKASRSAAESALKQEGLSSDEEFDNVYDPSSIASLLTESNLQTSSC
# UniProt P70290: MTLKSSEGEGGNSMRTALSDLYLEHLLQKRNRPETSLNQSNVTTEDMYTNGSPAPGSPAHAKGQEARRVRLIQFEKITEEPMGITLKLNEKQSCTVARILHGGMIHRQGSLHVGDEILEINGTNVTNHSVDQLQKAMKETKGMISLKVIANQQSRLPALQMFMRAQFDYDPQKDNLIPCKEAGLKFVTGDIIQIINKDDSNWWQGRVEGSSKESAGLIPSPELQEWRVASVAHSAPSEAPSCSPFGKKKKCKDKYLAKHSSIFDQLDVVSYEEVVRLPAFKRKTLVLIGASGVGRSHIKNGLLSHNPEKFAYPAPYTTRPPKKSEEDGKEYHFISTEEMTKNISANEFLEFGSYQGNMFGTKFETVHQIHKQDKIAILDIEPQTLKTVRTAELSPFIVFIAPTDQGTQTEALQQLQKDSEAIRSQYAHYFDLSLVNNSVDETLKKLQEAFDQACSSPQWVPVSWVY
# UniProt P70315: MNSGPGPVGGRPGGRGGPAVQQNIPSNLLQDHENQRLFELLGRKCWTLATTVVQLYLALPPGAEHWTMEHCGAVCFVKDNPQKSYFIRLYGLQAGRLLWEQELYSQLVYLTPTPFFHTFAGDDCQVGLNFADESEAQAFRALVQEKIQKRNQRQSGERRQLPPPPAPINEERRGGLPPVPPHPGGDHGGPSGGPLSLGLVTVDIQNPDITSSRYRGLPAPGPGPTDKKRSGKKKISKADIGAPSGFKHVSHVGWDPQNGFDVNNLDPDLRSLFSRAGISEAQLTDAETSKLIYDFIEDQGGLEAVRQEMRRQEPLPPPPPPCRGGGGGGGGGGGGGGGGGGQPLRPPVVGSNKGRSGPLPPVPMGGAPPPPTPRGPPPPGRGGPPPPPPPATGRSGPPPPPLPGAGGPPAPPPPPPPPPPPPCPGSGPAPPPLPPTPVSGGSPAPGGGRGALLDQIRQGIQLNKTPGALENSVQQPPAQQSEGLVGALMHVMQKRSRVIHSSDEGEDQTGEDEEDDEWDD
# UniProt P57016: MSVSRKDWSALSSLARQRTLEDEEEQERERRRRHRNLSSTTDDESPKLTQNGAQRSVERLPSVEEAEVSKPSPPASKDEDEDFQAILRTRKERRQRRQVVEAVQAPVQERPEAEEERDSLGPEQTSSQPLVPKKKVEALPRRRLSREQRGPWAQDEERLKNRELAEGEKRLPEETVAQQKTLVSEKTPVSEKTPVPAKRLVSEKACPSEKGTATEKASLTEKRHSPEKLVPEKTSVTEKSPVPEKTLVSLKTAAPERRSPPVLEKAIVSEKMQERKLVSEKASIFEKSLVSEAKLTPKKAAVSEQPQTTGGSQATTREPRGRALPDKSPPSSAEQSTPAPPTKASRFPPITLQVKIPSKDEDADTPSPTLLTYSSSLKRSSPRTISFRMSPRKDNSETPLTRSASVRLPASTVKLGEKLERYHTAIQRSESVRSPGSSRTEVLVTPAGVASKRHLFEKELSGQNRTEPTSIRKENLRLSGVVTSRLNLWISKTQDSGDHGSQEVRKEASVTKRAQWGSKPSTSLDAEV
# UniProt P56812: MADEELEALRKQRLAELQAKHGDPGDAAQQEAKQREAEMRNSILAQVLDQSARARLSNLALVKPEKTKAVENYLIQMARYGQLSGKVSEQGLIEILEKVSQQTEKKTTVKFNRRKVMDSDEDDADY
# UniProt P70122: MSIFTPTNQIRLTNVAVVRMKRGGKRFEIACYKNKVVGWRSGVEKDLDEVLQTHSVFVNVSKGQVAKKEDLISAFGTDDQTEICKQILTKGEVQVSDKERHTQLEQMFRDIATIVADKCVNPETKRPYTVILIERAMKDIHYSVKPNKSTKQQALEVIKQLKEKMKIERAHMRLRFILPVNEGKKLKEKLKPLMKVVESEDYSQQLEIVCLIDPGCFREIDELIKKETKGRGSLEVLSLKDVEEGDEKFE
# UniProt P62075: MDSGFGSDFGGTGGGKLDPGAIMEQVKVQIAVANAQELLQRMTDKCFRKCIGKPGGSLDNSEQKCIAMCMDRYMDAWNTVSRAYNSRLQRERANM
# UniProt P57784: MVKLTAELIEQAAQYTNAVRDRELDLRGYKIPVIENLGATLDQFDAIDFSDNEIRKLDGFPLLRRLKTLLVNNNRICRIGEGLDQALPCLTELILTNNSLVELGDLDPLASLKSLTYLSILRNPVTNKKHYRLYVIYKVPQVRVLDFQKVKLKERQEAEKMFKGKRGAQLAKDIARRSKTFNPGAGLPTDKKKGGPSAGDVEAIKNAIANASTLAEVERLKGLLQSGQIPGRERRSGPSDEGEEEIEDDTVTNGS
# UniProt P97370, whole entry: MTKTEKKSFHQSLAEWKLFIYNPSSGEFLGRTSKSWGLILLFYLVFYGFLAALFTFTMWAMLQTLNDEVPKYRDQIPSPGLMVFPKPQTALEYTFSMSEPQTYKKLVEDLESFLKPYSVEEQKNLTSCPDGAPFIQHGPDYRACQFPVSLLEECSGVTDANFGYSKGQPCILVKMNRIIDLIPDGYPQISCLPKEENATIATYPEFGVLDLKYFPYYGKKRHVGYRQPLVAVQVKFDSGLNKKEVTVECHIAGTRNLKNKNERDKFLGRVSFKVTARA
# UniProt P70266: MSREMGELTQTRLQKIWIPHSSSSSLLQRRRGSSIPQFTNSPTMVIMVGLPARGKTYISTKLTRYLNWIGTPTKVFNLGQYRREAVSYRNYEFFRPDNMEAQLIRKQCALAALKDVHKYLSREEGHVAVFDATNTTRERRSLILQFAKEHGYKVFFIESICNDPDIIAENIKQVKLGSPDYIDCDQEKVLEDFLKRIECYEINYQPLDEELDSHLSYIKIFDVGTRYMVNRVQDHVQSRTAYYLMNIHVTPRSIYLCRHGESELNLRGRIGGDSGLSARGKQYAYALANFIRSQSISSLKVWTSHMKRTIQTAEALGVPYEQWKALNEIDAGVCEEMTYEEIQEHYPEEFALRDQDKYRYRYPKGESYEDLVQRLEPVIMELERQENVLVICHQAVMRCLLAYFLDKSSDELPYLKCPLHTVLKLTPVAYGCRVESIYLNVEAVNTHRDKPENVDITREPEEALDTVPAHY
# UniProt P60762, whole entry: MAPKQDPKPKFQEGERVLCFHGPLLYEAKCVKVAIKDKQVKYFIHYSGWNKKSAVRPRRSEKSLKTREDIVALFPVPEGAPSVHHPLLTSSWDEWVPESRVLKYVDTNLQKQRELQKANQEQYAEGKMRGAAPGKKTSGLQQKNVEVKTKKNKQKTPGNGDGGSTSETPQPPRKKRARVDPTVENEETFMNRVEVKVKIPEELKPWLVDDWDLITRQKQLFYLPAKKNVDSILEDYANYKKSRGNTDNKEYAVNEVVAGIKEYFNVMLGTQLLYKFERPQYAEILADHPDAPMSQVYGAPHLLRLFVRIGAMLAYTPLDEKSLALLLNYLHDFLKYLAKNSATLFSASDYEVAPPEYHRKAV
# UniProt P70441: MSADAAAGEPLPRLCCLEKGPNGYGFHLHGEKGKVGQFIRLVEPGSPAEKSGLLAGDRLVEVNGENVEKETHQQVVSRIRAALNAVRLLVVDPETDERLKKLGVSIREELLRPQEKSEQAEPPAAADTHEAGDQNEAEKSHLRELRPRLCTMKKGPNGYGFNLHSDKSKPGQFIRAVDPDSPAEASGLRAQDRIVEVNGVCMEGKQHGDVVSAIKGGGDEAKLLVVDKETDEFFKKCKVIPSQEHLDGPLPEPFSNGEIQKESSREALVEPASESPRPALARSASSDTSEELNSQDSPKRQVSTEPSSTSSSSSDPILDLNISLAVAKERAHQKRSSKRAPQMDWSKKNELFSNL
# UniProt P62774, whole entry: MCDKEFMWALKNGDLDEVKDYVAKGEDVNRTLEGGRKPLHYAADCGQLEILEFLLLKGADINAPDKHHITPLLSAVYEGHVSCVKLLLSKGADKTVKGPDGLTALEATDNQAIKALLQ
# UniProt P59326: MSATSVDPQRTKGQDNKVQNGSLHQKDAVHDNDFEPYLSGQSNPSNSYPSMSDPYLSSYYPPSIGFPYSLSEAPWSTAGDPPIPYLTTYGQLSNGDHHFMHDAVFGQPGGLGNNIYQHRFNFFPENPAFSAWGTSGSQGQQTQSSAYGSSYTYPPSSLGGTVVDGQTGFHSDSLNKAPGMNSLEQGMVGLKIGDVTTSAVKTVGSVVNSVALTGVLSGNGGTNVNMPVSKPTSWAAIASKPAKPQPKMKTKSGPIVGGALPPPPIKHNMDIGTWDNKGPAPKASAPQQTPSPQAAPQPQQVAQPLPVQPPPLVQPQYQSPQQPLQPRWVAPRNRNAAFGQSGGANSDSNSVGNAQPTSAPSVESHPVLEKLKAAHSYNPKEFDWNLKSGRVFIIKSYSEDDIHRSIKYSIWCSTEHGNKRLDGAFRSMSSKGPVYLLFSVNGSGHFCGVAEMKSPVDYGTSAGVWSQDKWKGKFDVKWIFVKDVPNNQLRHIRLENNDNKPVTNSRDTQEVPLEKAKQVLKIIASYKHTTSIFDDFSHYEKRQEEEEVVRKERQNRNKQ
# UniProt P97765: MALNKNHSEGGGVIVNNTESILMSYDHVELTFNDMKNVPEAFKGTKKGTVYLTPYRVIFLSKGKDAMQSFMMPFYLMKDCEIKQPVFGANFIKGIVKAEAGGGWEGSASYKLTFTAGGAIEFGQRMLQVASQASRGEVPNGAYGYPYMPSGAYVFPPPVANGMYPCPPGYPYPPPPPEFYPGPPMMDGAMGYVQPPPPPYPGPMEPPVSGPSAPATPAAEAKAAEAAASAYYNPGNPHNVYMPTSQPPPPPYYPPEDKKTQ
# UniProt P70255, whole entry: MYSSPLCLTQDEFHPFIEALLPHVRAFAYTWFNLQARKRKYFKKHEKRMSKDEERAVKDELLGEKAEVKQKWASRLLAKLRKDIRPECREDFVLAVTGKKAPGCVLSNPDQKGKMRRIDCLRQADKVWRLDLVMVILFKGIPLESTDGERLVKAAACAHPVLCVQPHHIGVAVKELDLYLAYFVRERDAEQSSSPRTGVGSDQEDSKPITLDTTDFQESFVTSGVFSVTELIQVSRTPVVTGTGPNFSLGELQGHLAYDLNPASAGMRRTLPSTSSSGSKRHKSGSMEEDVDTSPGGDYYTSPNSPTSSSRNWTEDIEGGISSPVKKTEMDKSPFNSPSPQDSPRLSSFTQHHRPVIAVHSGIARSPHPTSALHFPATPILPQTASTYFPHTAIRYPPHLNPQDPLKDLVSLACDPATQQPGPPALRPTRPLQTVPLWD
# UniProt P60487: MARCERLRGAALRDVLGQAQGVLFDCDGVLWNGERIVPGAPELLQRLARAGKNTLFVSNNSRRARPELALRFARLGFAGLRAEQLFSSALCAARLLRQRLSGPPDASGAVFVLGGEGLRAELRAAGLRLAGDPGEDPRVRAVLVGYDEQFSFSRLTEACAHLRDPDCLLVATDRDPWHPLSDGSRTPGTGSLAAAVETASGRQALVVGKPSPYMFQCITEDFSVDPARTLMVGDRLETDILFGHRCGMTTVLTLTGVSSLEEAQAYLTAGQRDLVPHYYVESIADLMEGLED
# Some of the results follow. Most values lie at the level of the controls, where differences are scatter.
# Compound: CN[C@@H]1C[C@H]2O[C@@](C)([C@@H]1OC)n1c3ccccc3c3c4c(c5c6ccccc6n2c5c31)C(=O)NC4 [staurosporine]
# Experiment: log2 fold change of pooled soluble protein (PISA), ligand vs vehicle (log2 ratio); higher = more thermally stabilized
# Settings: ligand concentration: 20 uM; assay format: PISA pool 52.9/55.5/58.6 C
row,Target,log2 fold change of pooled soluble protein
1,UniProt P59242,-0.0721
2,UniProt P70290,-0.0796
3,UniProt P59759,0.0707
4,UniProt P70698,0.351
5,UniProt P70315,-0.149
6,UniProt P70365,-0.0198
7,UniProt P57016,-0.0262
8,UniProt P60670,-0.0142
9,UniProt P60334,-0.183
10,UniProt P61022,0.0506
11,UniProt P58283,-0.152
12,UniProt P56812,-0.00857
13,UniProt P59808,-0.0932
14,UniProt P70122,0.00792
15,UniProt P62075,-0.0134
16,UniProt P57784,-0.0433
17,P63094;Q6R0H7,-0.0163
18,UniProt P97785,-0.0855
19,UniProt P97370,0.0239

row,Target,log2 fold change of pooled soluble protein
1,UniProt P70266,-0.107
2,UniProt P60762,-0.28
3,UniProt P70441,-0.0564
4,UniProt P62137,0.00679
5,UniProt P62774,0.176
6,P61327;Q9CQL1,-0.117
7,UniProt P70704,0.17
8,UniProt P59326,0.155
9,UniProt P97765,-0.0233
10,UniProt P70255,-0.00138
11,P63271;Q9Z199,-0.243
12,UniProt P63321,-0.0556
13,UniProt P62814,-0.0315
14,UniProt P70297,-0.0577
15,UniProt P60122,-0.101
16,UniProt P60487,0.00361
17,UniProt P97789,0.0538
18,UniProt P97364,-0.0617

# Reformatted bar-delimited: part of the list above
row | Target | log2 fold change of pooled soluble protein
8 | UniProt P59326 | 0.155
9 | UniProt P97765 | -0.0233
